Data on two molecules can be found in paper PMC13015889.

These are yes or no findings as the source states them, for the method shown. In cells and extracts the contact can be indirect. These calls come from enrichment with a bait or labelling near it, and not all partners need be listed. Tags and fused reporters may be left off the sequences shown.

Assay [1] has as its target T1, ERECTA-HA-TbID fusion protein (Arabidopsis thaliana) (UniProt Q42371).
T1 sequence: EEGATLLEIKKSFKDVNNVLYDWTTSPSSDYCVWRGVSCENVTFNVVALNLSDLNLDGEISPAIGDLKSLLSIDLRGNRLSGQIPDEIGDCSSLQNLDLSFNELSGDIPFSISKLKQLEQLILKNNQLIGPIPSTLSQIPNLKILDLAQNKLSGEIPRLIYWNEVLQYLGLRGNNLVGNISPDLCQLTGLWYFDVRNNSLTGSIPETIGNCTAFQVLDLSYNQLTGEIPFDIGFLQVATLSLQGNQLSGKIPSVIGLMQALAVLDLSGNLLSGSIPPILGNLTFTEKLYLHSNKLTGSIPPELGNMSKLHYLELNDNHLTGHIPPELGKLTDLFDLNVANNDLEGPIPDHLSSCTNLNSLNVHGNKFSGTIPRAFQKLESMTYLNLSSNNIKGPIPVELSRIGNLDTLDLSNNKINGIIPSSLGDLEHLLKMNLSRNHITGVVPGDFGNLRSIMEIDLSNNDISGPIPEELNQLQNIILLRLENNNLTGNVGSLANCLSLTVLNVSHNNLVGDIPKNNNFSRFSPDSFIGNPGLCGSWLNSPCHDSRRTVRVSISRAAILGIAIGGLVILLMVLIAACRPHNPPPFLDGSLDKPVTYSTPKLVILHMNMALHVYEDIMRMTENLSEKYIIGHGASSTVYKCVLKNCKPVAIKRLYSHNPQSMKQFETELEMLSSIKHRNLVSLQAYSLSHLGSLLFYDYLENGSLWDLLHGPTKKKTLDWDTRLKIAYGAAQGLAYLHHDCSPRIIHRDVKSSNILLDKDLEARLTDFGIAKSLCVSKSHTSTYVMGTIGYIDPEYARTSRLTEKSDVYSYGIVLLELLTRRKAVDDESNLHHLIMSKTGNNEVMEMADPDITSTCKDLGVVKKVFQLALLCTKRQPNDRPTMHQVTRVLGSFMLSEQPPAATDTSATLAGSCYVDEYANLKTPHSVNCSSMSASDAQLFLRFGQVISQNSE
In words: proximity labelling; optimized TbID-PL: ERECTA-HA-TbID seedlings with biotin (1 hour) compared to mock treated control (without biotin, 1 hour).

The target of assay [2] is T1, ERECTA-HA-TbID fusion protein (Arabidopsis thaliana). In words: proximity labelling; TbID-PL: ERECTA-HA-TbID seedlings, 50 μM biotin 1 hour at room temperature; biotinylated proteins on streptavidin magnetic beads, LC-MS; ERECTA-HA-TbID vs er-105.
For assay [3] the target is unchanged. In words: proximity labelling; ERECTA membrane TbID-PL: microsomal fractionation, microsomal versus cytosolic fractions.

B1: ANGUSTIFOLIA (protein, UniProt O23702 1-636)
chain: MSKIRSSATMPHRDQPSPASPHVVTLNCIEDCALEQDSLAGVAGVEYVPLSRIADGKIESATAVLLHSLAYLPRAAQRRLRPHQLILCLGSADRAVDSTLAADLGLRLVHVDTSRAEEIADTVMALILGLLRRTHLLSRHALSASGWLGSLQPLCRGMRRCRGMVLGIVGRSVSARYLASRSLAFKMSVLYFDVPEGDEERIRPSRFPRAARRMDTLNDLLAASDVISLHCALTNDTVQILNAECLQHIKPGAFLVNTGSCQLLDDCAVKQLLIDGTIAGCALDGAEGPQWMEAWVKEMPNVLILPRSADYSEEVWMEIREKAISILHSFFLDGVIPSNTVSDEEVEESEASEEEEQSPSKHEKLAIVESTSRQQGESTLTSTEIVRREASELKESLSPGQQHVSQNTAVKPEGRRSRSGKKAKKRHSQQKYMQKTDGSSGLNEESTSRRDDIAMSDTEEVLSSSSRCASPEDSRSRKTPLEVMQESSPNQLVMSSKKFIGKSSELLKDGYVVALYAKDLSGLHVSRQRTKNGGWFLDTLSNVSKRDPAAQFIIAYRNKDTVGLRSFAAGGKLLQINRRMEFVFASHSFDVWESWSLEGSLDECRLVNCRNSSAVLDVRVEILAMVGDDGITRWID
B1: the binding entry in assay [1], in assay [2] and in assay [3] was “binds” throughout.

B2: LRR-RK HAESA-LIKE1 (HSL1) (receptor, UniProt Q9SGP2 16-996)
chain: LNQDGFILQQVKLSLDDPDSYLSSWNSNDASPCRWSGVSCAGDFSSVTSVDLSSANLAGPFPSVICRLSNLAHLSLYNNSINSTLPLNIAACKSLQTLDLSQNLLTGELPQTLADIPTLVHLDLTGNNFSGDIPASFGKFENLEVLSLVYNLLDGTIPPFLGNISTLKMLNLSYNPFSPSRIPPEFGNLTNLEVMWLTECHLVGQIPDSLGQLSKLVDLDLALNDLVGHIPPSLGGLTNVVQIELYNNSLTGEIPPELGNLKSLRLLDASMNQLTGKIPDELCRVPLESLNLYENNLEGELPASIALSPNLYEIRIFGNRLTGGLPKDLGLNSPLRWLDVSENEFSGDLPADLCAKGELEELLIIHNSFSGVIPESLADCRSLTRIRLAYNRFSGSVPTGFWGLPHVNLLELVNNSFSGEISKSIGGASNLSLLILSNNEFTGSLPEEIGSLDNLNQLSASGNKFSGSLPDSLMSLGELGTLDLHGNQFSGELTSGIKSWKKLNELNLADNEFTGKIPDEIGSLSVLNYLDLSGNMFSGKIPVSLQSLKLNQLNLSYNRLSGDLPPSLAKDMYKNSFIGNPGLCGDIKGLCGSENEAKKRGYVWLLRSIFVLAAMVLLAGVAWFYFKYRTFKKARAMERSKWTLMSFHKLGFSEHEILESLDEDNVIGAGASGKVYKVVLTNGETVAVKRLWTGSVKETGDCDPEKGYKPGVQDEAFEAEVETLGKIRHKNIVKLWCCCSTRDCKLLVYEYMPNGSLGDLLHSSKGGMLGWQTRFKIILDAAEGLSYLHHDSVPPIVHRDIKSNNILIDGDYGARVADFGVAKAVDLTGKAPKSMSVIAGSCGYIAPEYAYTLRVNEKSDIYSFGVVILEIVTRKRPVDPELGEKDLVKWVCSTLDQKGIEHVIDPKLDSCFKEEISKILNVGLLCTSPLPINRPSMRRVVKMLQEIGGGDEDSLHKIRDDKDGKLTPYYNEDTSDQGSIA
In the case of B2, in assay [3], the binding entry is listed as “binds”.
